The supplement of paper PMC10727501
The list shows a part of the results. This data set is noisy: repeats of one test often differ as much as different tests do.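 Free-swimming zebrafish larvae were scored for O-bend response probability to dark flashes (naive: first five; training: remaining flashes of four 60-flash blocks; test: later 60-flash block) and for turning toward alternating leftward/rightward LED motion (OMR). Six treated larvae were compared with sixty 0.1% DMSO controls; |SSMD|≥2 defined a hit.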

Tested on: Danio rerio larvae (5 dpf, TLF)
Test: Prob-Train (SSMD vs DMSO vehicle); higher = higher than vehicle (e.g. higher dark-flash O-bend response probability, or better optomotor performance)
Details: 10 µM; pre-incubation: 30-90 min

With `CC(=O)S[C@@H]1CC2=CC(=O)CC[C@]2(C)[C@@H]2CC[C@@]3(C)[C@@H](CC[C@]34CCC(=O)O4)[C@@H]21` [Spironolactone] as the compound, how does the Prob-Train read?
Its Prob-Train is -0.306.

With `CC[C@@H](CO)NCCN[C@@H](CC)CO.Cl.Cl` [Ethambutol HCl] as the compound, how does the Prob-Train read?
The Prob-Train was 0.000824.

`C#CCN(C)CCCOc1ccc(Cl)cc1Cl.Cl` [Clorgyline HCl] was tested. Which Prob-Train did it give?
The Prob-Train was -1.46.

`O=C(NOC[C@H](O)CO)c1ccc(F)c(F)c1Nc1ccc(I)cc1F` was tested. Which Prob-Train did it give?
The Prob-Train was -1.73.

With `COc1cc2ncnc(Nc3cccc(Br)c3)c2cc1OC.Cl` as the compound, how does the Prob-Train read?
Its Prob-Train is -0.203.

With `CC(C(=O)[O-])c1cccc(Oc2ccccc2)c1.CC(C(=O)[O-])c1cccc(Oc2ccccc2)c1.[Ca+2]` (stereo not given) [Fenoprofen Calcium] as the compound, how does the Prob-Train read?
The Prob-Train was -2.07.

For `Cc1nccn1CC1CCc2c(c3ccccc3n2C)C1=O.Cl` (stereo not given) [Ondansetron HCl], which Prob-Train is on record?
Its Prob-Train is -0.0188.

How did the Prob-Train turn out when `COc1cc2c(cc1OC)[C@@H]1Cc3ccc(OC)c(OC)c3CN1CC2` [Rotundine] was run?
The Prob-Train was -0.73.

With `CC(C)(C(=O)O)c1ccc(C(O)CCCN2CCC(C(O)(c3ccccc3)c3ccccc3)CC2)cc1.Cl` (stereo not given) [Fexofenadine HCl] as the compound, how does the Prob-Train read?
Its Prob-Train is -2.05.

`Cc1cccc(C#Cc2ccccc2)n1` was tested. Which Prob-Train did it give?
The Prob-Train was -1.27.

How did the Prob-Train turn out when `C[C@H]1C[C@@H]2[C@@H]([C@H](O)C[C@@]3(C)[C@H]2CC[C@@]3(O)C(=O)CO)[C@@]2(C)C=CC(=O)C=C12` [Methylprednisolone] was run?
Its Prob-Train is -0.783.

How did the Prob-Train turn out when `CO[C@@H](C(=O)N1Cc2[nH]nc(NC(=O)c3ccc(N4CCN(C)CC4)cc3)c2C1)c1ccccc1` was run?
The Prob-Train was 0.273.

With `C[N+](C)(CCOc1ccccc1)Cc1ccccc1.O=C(O)c1cc2ccccc2cc1[O-]` [Bephenium Hydroxynaphthoate] as the compound, how does the Prob-Train read?
Its Prob-Train is 0.412.

With `COc1nc(C)cnc1NS(=O)(=O)c1cccnc1-c1ccc(-c2nnco2)cc1` [Zibotentan (ZD4054)] as the compound, how does the Prob-Train read?
Its Prob-Train is 0.511.

How did the Prob-Train turn out when `CCN(CC)C(=O)/C(C#N)=C/c1cc(O)c(O)c([N+](=O)[O-])c1` [Entacapone] was run?
The Prob-Train was -0.0674.

How did the Prob-Train turn out when `CCCCC(=O)O[C@@]1(C(=O)CO)[C@@H](C)C[C@H]2[C@@H]3CCC4=CC(=O)C=C[C@]4(C)[C@]3(F)[C@H](O)C[C@@]21C` [Betamethasone valerate (Betnovate)] was run?
Its Prob-Train is -0.104.

Which Prob-Train does the source give for `CN1CCN(c2c(F)cc3c(=O)c(C(=O)O)cn4c3c2OCN4C)CC1` [Marbofloxacin] here?
Its Prob-Train is 0.352.

How did the Prob-Train turn out when `CNC1CCCN(c2c(F)cc3c(=O)c(C(=O)O)cn(C4CC4)c3c2OC)C1` (stereo not given) [Balofloxacin] was run?
Its Prob-Train is -0.321.

With `O=c1[nH]cnc2c1ncn2[C@H]1O[C@H](CO)[C@@H](O)[C@H]1O` [Inosine] as the compound, how does the Prob-Train read?
Its Prob-Train is -0.598.

Which Prob-Train does the source give for `CO[C@H]1C[C@@H]2CC[C@@H](C)[C@@](O)(O2)C(=O)C(=O)N2CCCC[C@H]2C(=O)O[C@H]([C@H](C)C[C@@H]2CC[C@@H](O)[C@H](OC)C2)CC(=O)[C@H](C)/C=C(\C)[C@@H](O)[C@@H](OC)C(=O)[C@H](C)C[C@H](C)/C=C/C=C/C=C/1C` [Rapamycin (Sirolimus)] here?
The Prob-Train was 0.249.

How did the Prob-Train turn out when `N#C/C(=C(/N)Sc1ccc(N)cc1)c1ccccc1C(F)(F)F` was run?
The Prob-Train was -2.49.

`CC(O)(P(=O)(O)O)P(=O)(O)O` [Etidronate (Didronel)] was tested. Which Prob-Train did it give?
Its Prob-Train is -0.535.

For `N[C@@H](Cc1cc(I)c(Oc2ccc(O)c(I)c2)c(I)c1)C(=O)[O-].[Na+]` [Liothyronine Sodium], which Prob-Train is on record?
Its Prob-Train is -1.43.

`C[C@]12CCC(=O)C=C1CC[C@@H]1[C@H]2[C@H](O)C[C@@]2(C)[C@H]1CC[C@@]2(O)C(=O)CO` [Hydrocortisone] was tested. Which Prob-Train did it give?
The Prob-Train was 0.261.

How did the Prob-Train turn out when `COc1cc(N2CCC(N3CCN(C)CC3)CC2)ccc1Nc1ncc(Cl)c(Nc2ccccc2S(=O)(=O)C(C)C)n1` was run?
The Prob-Train was -0.603.

For `Cc1cnc(C(=O)NCCc2ccc(S(=O)(=O)NC(=O)NC3CCCCC3)cc2)cn1` [Glipizide], which Prob-Train is on record?
Its Prob-Train is 0.213.

`COc1c(N2CCNC(C)C2)c(F)cc2c(=O)c(C(=O)O)cn(C3CC3)c12` (stereo not given) [Gatifloxacin] was tested. Which Prob-Train did it give?
The Prob-Train was 0.202.

`COc1cc(C(=O)NC2CCCNC2)cc(OC)c1OC` (stereo not given) [Troxipide] was tested. Which Prob-Train did it give?
The Prob-Train was 0.285.

Which Prob-Train does the source give for `OC[C@H]1O[C@@H](c2ccc(Cl)c(Cc3ccc(O[C@H]4CCOC4)cc3)c2)[C@H](O)[C@@H](O)[C@@H]1O` here?
The Prob-Train was 0.199.

Which Prob-Train does the source give for `Cn1cnc2c1c(=O)[nH]c(=O)n2C` [Theobromine] here?
The Prob-Train was -0.479.

For `CC(C)(C)c1cnc(CSc2cnc(NC(=O)C3CCNCC3)s2)o1`, which Prob-Train is on record?
Its Prob-Train is -0.293.

With `COc1cc2ncnc(Nc3ccc(Cl)cc3F)c2cc1OC` as the compound, how does the Prob-Train read?
Its Prob-Train is -0.371.

Which Prob-Train does the source give for `CS(=O)(=O)N1CCN(Cc2cc3nc(-c4cccc5[nH]ncc45)nc(N4CCOCC4)c3s2)CC1` here?
Its Prob-Train is -0.771.

With `CCOC(=O)[C@H](CCc1ccccc1)N[C@H]1CCCN2CCC[C@H](C(=O)O)N2C1=O.O` [Cilazapril Monohydrate] as the compound, how does the Prob-Train read?
Its Prob-Train is 0.0902.

Which Prob-Train does the source give for `O=c1cc(O)c(Cl)c[nH]1` [Gimeracil] here?
Its Prob-Train is 0.459.

How did the Prob-Train turn out when `CO[C@H]1/C=C/O[C@]2(C)Oc3c(C)c(O)c4c(O)c(c5c(nc6cc(C)ccn65)c4c3C2=O)NC(=O)/C(C)=C\C=C\[C@@H](C)[C@H](O)[C@H](C)[C@@H](O)[C@@H](C)[C@H](OC(C)=O)[C@@H]1C` [Rifaximin] was run?
The Prob-Train was 0.113.

For `Cl.Nc1c2c(nc3ccccc13)CCCC2` [Tacrine HCl], which Prob-Train is on record?
Its Prob-Train is 0.437.

Which Prob-Train does the source give for `CC(C)Cn1cnc2c(N)nc3ccccc3c21` [Imiquimod] here?
Its Prob-Train is 0.379.

With `COc1ccc2cc(-c3[nH]c(-c4ccc(S(C)=O)cc4)nc3-c3ccncc3)ccc2c1` (stereo not given) [Tie2 kinase inhibitor] as the compound, how does the Prob-Train read?
Its Prob-Train is -0.194.

Which Prob-Train does the source give for `NS(=O)(=O)c1cc2c(cc1Cl)N=CNS2(=O)=O` [Chlorothiazide] here?
Its Prob-Train is 0.487.
